Results deposited as PubChem BioAssay AID1224830 (NIAID, 2016).
In all, the deposit lists about 18,000 reagents; below is an unselected part. About 2,900 of them (16%) count as active. 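Calls are made per well; low scores hint the gene aids the LPS response, high scores that it dampens it.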 A number with no mark means an inactive call. Repeated entries: four replicate wells of each siRNA pool.

Assay: 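Host factors that control LPS-induced TNF expression in human macrophages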 (primary screen)
Cells: human THP-1 monocytic leukaemia cells, TNF dual-luciferase reporter clone, PMA-differentiated to macrophage-like cells
Reagent: siRNA pool against human genes, 50 nM
Timing: LPS for 4 h, given about 3 days after siRNA transfection
Treatment: bacterial LPS (TLR4 ligand), 10 ng/ml
Detection: 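TNF firefly reporter luminescence divided by renilla, normalised to the plate median, then turned into a robust z-score for each replicate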
Direction: TNF reporter robust z-score: higher = stronger TNF reporter response to LPS
Hit rule: 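a well is active when its z-score exceeds 2.8 or falls below -1.5; control wells carry no call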

| gene | TNF reporter robust z-score |
| --- | --- |
| COMTD1 (GeneID 118881) | -0.29 |
| COMTD1 (GeneID 118881) | -0.12 |
| COMTD1 (GeneID 118881) | 0.61 |
| COMTD1 (GeneID 118881) | 0.92 |
| MS4A4A (GeneID 51338) | -0.84 |
| MS4A4A (GeneID 51338) | -0.74 |
| MS4A4A (GeneID 51338) | -0.71 |
| MS4A4A (GeneID 51338) | -1.18 |
| CCL3 (GeneID 6348) | -1.37 |
| CCL3 (GeneID 6348) | -1.4 |
| CCL3 (GeneID 6348) | -0.94 |
| CCL3 (GeneID 6348) | -0.87 |
| LINC02872 (GeneID 401535) | 0.33 |
| LINC02872 (GeneID 401535) | 0.69 |
| LINC02872 (GeneID 401535) | 1.59 |
| LINC02872 (GeneID 401535) | 1.03 |
| SRSF3 (GeneID 6428) | -0.92 |
| SRSF3 (GeneID 6428) | -1.03 |
| SRSF3 (GeneID 6428) | -1.48 |
| SRSF3 (GeneID 6428) | -0.98 |
| PFKP (GeneID 5214) | 0.06 |
| PFKP (GeneID 5214) | -0.04 |
| PFKP (GeneID 5214) | -0.08 |
| PFKP (GeneID 5214) | -0.26 |
| BAZ2B (GeneID 29994) | -0.92 |
| BAZ2B (GeneID 29994) | 0.23 |
| BAZ2B (GeneID 29994) | -0.59 |
| BAZ2B (GeneID 29994) | 1.22 |
| ZNF518B (GeneID 85460) | 0.18 |
| ZNF518B (GeneID 85460) | 0.26 |
| ZNF518B (GeneID 85460) | -0.69 |
| ZNF518B (GeneID 85460) | -0.41 |
| TP53BP1 (GeneID 7158) | 0.82 |
| TP53BP1 (GeneID 7158) | 0.07 |
| TP53BP1 (GeneID 7158) | -0.98 |
| TP53BP1 (GeneID 7158) | 1.33 |
| PYM1 (GeneID 84305) | 0.65 |
| PYM1 (GeneID 84305) | 1.3 |
| PYM1 (GeneID 84305) | 0.88 |
| PYM1 (GeneID 84305) | 1.15 |

Not a retest: an excerpt of the list.
| gene | TNF reporter robust z-score |
| --- | --- |
| MS4A4A (GeneID 51338) | -0.71 |
| MS4A4A (GeneID 51338) | -1.18 |
| CCL3 (GeneID 6348) | -1.37 |
| CCL3 (GeneID 6348) | -1.4 |
| CCL3 (GeneID 6348) | -0.94 |
| CCL3 (GeneID 6348) | -0.87 |
| LINC02872 (GeneID 401535) | 0.33 |
| LINC02872 (GeneID 401535) | 0.69 |
| LINC02872 (GeneID 401535) | 1.59 |
| LINC02872 (GeneID 401535) | 1.03 |
| SRSF3 (GeneID 6428) | -0.92 |
| SRSF3 (GeneID 6428) | -1.03 |
| SRSF3 (GeneID 6428) | -1.48 |
| SRSF3 (GeneID 6428) | -0.98 |
| PFKP (GeneID 5214) | 0.06 |
| PFKP (GeneID 5214) | -0.04 |

The results go on.
| gene | TNF reporter robust z-score |
| --- | --- |
| AP2S1 (GeneID 1175) | 0.04 |
| AP2S1 (GeneID 1175) | -0.52 |
| AP2S1 (GeneID 1175) | -0.65 |
| AP2S1 (GeneID 1175) | -0.2 |
| CD200R1 (GeneID 131450) | 0.47 |
| CD200R1 (GeneID 131450) | 1.34 |
| CD200R1 (GeneID 131450) | 2.65 |
| CD200R1 (GeneID 131450) | 1.59 |
| DNAH5 (GeneID 1767) | -0.24 |
| DNAH5 (GeneID 1767) | 1.78 |
| DNAH5 (GeneID 1767) | 0.22 |
| DNAH5 (GeneID 1767) | 0.36 |
| MYOG (GeneID 4656) | -0.44 |
| MYOG (GeneID 4656) | -0.54 |
| MYOG (GeneID 4656) | -0.11 |
| MYOG (GeneID 4656) | -0.7 |
| RPL27 (GeneID 6155) | -0.71 |
| RPL27 (GeneID 6155) | -0.86 |
| RPL27 (GeneID 6155) | -1.4 |
| RPL27 (GeneID 6155) | -1.63 (active) |
| SLC15A2 (GeneID 6565) | 0.55 |
| SLC15A2 (GeneID 6565) | 0.12 |
| SLC15A2 (GeneID 6565) | -0.34 |
| SLC15A2 (GeneID 6565) | 307 (active) |
| MTFMT (GeneID 123263) | -0.2 |
| MTFMT (GeneID 123263) | -0.69 |
| MTFMT (GeneID 123263) | -0.11 |
| MTFMT (GeneID 123263) | -0.26 |
| MAGEA11 (GeneID 4110) | 0.07 |
| MAGEA11 (GeneID 4110) | 1.82 |
| MAGEA11 (GeneID 4110) | 0.7 |
| MAGEA11 (GeneID 4110) | 2.15 |
| LAIR2 (GeneID 3904) | 2.39 |
| LAIR2 (GeneID 3904) | 1.89 |
| LAIR2 (GeneID 3904) | 0.34 |
| LAIR2 (GeneID 3904) | 2.13 |
| LRBA (GeneID 987) | -0.61 |
| LRBA (GeneID 987) | -0.49 |
| LRBA (GeneID 987) | 0.21 |
| LRBA (GeneID 987) | -0.22 |
| MRFAP1L1 (GeneID 114932) | 0.25 |
| MRFAP1L1 (GeneID 114932) | -0.08 |
| MRFAP1L1 (GeneID 114932) | 0.34 |
| MRFAP1L1 (GeneID 114932) | -0.06 |
| TMEM97 (GeneID 27346) | 1.48 |
| TMEM97 (GeneID 27346) | 1.42 |
| TMEM97 (GeneID 27346) | 0.15 |
| TMEM97 (GeneID 27346) | 0.52 |
| GPR32 (GeneID 2854) | -1.06 |
| GPR32 (GeneID 2854) | 0.91 |
| GPR32 (GeneID 2854) | -0.22 |
| GPR32 (GeneID 2854) | 1.48 |
| FBXW2 (GeneID 26190) | 1.51 |
| FBXW2 (GeneID 26190) | 0.26 |
| FBXW2 (GeneID 26190) | 1.72 |
| FBXW2 (GeneID 26190) | -1.24 |
| PUM2 (GeneID 23369) | 0.43 |
| PUM2 (GeneID 23369) | -0.52 |
| PUM2 (GeneID 23369) | -0.23 |
| PUM2 (GeneID 23369) | 0.47 |
| TMEM215 (GeneID 401498) | 0.26 |
| TMEM215 (GeneID 401498) | 1.03 |
| TMEM215 (GeneID 401498) | -0.52 |
| TMEM215 (GeneID 401498) | 1.15 |
| TAMALIN (GeneID 160622) | 0.22 |
| TAMALIN (GeneID 160622) | 0.02 |
| TAMALIN (GeneID 160622) | 0.72 |
| TAMALIN (GeneID 160622) | 0.44 |
| DPT (GeneID 1805) | -0.61 |
| DPT (GeneID 1805) | -0.6 |
| DPT (GeneID 1805) | -1.04 |
| DPT (GeneID 1805) | -0.23 |
